Read-outs that look alike come from different tables or passages of the source. No constants are given. Whether binding was seen depends on the method and setting. For part of these data: In cells and extracts the contact can be indirect. Some entries that bind do so weakly or less than the wild type. For part of these data: Where a sequence is shown, tags or fusion partners need not be part of it.
How the values were obtained:
[1] = biological target: T1, ETTIN (ETT)/ARF3 fused to the GAL4 DNA-binding domain (ETT-BD) (Arabidopsis) (UniProt O23661); assay: two-hybrid; yeast AH109, 28°C, cotransformation; YSD lacking Leu, Trp, adenine and His with 1, 2.5 and 5 mM 3-AT; no IAA (ETT-IND also with NAA or 2,4-D in the medium)
T1 sequence: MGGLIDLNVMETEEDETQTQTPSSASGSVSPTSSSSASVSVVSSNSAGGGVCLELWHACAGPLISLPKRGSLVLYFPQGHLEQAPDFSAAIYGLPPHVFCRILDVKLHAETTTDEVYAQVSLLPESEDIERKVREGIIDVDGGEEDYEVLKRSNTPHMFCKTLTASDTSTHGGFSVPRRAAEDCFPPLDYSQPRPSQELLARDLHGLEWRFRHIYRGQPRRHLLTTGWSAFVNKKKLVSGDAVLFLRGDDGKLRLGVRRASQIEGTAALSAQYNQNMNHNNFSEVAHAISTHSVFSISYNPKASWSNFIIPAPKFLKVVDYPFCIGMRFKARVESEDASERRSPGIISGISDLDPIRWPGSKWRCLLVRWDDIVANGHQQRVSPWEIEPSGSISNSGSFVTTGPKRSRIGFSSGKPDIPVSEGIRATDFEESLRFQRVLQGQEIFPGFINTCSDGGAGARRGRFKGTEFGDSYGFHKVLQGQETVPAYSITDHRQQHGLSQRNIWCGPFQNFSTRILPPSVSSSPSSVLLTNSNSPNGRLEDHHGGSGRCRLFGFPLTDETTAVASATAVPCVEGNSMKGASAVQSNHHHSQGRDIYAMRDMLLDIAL

By UniProt entry, the sequences of proteins in these tests, tags left out.
UniProt Q9FJV5: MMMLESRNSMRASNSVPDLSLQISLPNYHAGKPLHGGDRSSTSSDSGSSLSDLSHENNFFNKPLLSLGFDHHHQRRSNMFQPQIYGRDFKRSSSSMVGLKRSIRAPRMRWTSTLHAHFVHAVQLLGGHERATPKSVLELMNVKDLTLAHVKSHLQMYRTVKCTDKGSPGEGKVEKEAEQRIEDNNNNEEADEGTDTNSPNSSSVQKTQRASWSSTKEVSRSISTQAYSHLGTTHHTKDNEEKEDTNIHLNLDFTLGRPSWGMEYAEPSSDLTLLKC

[2] = biological target: T2, ETT in pYFPN43 (pYFPN-ETT) for BiFC (Arabidopsis) (UniProt O23661); assay: split reporter; BiFC with pYFPN-ETT and pYFPC-IND plus p19 (pEAQ-HT); images 72 h after infiltration; also with 1 mM IAA, NAA or 2,4-D in lanolin applied 24 and 48 h after infiltration
T2 sequence: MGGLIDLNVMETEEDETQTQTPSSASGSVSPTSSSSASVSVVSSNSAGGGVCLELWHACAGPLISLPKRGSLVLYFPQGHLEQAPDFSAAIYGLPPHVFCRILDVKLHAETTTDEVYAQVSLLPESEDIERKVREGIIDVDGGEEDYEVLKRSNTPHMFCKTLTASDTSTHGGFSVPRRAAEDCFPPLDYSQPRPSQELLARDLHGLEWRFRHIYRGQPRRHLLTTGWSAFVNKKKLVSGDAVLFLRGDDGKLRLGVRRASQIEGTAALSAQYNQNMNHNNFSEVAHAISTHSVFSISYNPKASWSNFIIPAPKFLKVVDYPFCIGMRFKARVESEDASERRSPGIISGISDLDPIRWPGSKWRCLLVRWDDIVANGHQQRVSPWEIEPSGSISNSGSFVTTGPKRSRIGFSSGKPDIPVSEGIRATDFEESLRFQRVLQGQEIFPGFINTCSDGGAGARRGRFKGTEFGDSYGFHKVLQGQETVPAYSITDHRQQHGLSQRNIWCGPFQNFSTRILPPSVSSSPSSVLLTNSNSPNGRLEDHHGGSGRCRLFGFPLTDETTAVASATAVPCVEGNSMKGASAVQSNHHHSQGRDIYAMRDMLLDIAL

[3] = biological target: T3, ETT-C452S-C506S (ETT^2C-S) fused to the GAL4 DNA-binding domain (Arabidopsis) (UniProt O23661); assay: two-hybrid; as a2, with IAA (dissolved in ethanol) added to the medium
T3 sequence: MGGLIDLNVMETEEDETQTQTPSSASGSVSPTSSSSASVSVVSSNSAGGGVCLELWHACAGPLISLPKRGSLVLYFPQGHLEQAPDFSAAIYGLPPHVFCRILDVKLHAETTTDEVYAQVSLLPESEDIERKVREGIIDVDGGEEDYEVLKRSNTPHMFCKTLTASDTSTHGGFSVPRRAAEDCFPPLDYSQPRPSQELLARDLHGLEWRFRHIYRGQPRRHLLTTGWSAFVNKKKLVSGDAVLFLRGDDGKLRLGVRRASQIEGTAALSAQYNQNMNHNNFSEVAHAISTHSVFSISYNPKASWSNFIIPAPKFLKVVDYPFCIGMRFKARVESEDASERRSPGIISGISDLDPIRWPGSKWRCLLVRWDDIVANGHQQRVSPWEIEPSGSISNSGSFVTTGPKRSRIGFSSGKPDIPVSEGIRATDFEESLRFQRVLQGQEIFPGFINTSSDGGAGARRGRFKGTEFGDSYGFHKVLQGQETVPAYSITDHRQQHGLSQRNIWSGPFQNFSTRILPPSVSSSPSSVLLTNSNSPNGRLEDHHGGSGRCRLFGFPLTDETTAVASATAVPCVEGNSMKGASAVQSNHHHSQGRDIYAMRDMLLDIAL

[4] = biological target: T4, SPATULA (SPT) fused to the GAL4 DNA-binding domain (SPT-BD) (Arabidopsis) (UniProt Q9FUA4); assay: as above
T4 sequence: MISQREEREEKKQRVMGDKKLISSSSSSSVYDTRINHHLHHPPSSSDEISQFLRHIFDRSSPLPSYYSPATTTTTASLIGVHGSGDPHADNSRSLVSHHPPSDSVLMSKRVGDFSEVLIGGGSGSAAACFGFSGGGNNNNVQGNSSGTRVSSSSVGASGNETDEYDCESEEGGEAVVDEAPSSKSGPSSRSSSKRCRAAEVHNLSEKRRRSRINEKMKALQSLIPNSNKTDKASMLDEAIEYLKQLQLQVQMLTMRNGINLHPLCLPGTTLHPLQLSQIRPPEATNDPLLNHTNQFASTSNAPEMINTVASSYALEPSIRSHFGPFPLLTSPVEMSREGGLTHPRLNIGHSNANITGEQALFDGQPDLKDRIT

[5] = biological target: T3, ETT-C452S-C506S (ETT^2C-S) fused to the GAL4 DNA-binding domain (Arabidopsis); assay: two-hybrid; yeast AH109, 28°C, cotransformation; YSD lacking Leu, Trp, adenine and His with 1, 2.5 and 5 mM 3-AT; no IAA (ETT-IND also with NAA or 2,4-D in the medium)
[6] = biological target: T1, ETTIN (ETT)/ARF3 fused to the GAL4 DNA-binding domain (ETT-BD) (Arabidopsis); assay: as above; remark: listed apart in the source
[7] = biological target: T4, SPATULA (SPT) fused to the GAL4 DNA-binding domain (SPT-BD) (Arabidopsis); assay: as above
[8] = biological target: T5, ETT-CFP (FRET/FLIM in protoplasts) (Arabidopsis) (UniProt O23661); assay: FRET or BRET; FRET/FLIM, CFP lifetime, in transfected Arabidopsis mesophyll protoplasts; n = 28 cells
T5 sequence: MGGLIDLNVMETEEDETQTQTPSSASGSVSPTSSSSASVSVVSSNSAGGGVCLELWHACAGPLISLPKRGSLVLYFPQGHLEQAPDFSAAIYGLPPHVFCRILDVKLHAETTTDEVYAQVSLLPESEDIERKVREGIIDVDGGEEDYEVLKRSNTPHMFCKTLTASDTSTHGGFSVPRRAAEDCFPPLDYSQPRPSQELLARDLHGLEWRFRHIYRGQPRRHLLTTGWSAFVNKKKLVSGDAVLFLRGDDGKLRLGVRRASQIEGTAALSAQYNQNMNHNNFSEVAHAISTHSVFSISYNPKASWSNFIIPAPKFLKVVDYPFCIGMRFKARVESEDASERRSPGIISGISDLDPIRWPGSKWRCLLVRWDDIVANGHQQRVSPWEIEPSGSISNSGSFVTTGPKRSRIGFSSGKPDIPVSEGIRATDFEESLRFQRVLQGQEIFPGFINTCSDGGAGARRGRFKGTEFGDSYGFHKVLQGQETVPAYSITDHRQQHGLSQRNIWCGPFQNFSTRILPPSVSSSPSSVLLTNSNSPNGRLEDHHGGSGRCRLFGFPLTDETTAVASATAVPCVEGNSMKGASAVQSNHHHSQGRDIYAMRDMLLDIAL

[9] = biological target: T6, ETT-CFP expressed from pETT(3.7kb)::ETT-CFP in plants (Arabidopsis) (UniProt O23661); assay: FRET or BRET; in vivo CFP-YFP FRET by acceptor photobleaching in nuclei of stylar cells (stage 10-11) of plants expressing ETT-CFP and IND-YFP; 200 nuclei
T6 sequence: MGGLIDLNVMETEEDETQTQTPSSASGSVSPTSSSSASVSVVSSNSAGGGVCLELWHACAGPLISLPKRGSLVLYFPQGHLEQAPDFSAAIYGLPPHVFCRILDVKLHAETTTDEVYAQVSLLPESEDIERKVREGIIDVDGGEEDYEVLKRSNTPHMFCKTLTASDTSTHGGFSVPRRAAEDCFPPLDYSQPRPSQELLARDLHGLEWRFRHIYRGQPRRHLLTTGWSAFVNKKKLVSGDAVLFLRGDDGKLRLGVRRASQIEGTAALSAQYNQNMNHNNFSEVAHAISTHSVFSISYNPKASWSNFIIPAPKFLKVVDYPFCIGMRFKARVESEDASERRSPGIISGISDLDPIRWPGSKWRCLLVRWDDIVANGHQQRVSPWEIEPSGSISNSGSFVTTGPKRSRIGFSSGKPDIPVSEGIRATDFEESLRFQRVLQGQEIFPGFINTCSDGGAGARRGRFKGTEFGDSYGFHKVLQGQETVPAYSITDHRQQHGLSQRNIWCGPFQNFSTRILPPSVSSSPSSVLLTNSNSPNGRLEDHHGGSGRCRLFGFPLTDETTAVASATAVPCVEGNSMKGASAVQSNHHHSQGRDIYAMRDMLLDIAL

With “ABERRANT TESTA SHAPE (ATS; also known as KANADI4) fused to the AD domain (from UniProt Q9FJV5 1-276)” the binding [1] was “binds”.

B1: IND in pYFPC43 (pYFPC-IND) for BiFC (protein, UniProt O81313 1-198)
chain: MENGMYKKKGVCDSCVSSKSRSNHSPKRSMMEPQPHHLLMDWNKANDLLTQEHAAFLNDPHHLMLDPPPETLIHLDEDEEYDEDMDAMKEMQYMIAVMQPVDIDPATVPKPNRRNVRISDDPQTVVARRRRERISEKIRILKRIVPGGAKMDTASMLDEAIRYTKFLKRQVRILQPHSQIGAPMANPSYLCYYHNSQP
In the case of B1, the binding [2] is reported as “binds”.

B2: … (IND) fused to the GAL4 activation domain (IND-AD) (protein, UniProt O81313 1-198)
chain: MENGMYKKKGVCDSCVSSKSRSNHSPKRSMMEPQPHHLLMDWNKANDLLTQEHAAFLNDPHHLMLDPPPETLIHLDEDEEYDEDMDAMKEMQYMIAVMQPVDIDPATVPKPNRRNVRISDDPQTVVARRRRERISEKIRILKRIVPGGAKMDTASMLDEAIRYTKFLKRQVRILQPHSQIGAPMANPSYLCYYHNSQP
B2 was tested, and the binding [3] was “binds”, the binding [4] was “binds” and the binding [5] was “binds”. The binding [6] was “binds” and the binding [7] was “binds”.

B3: IND-YFP (FRET/FLIM in protoplasts) (protein, UniProt O81313 1-198)
chain: MENGMYKKKGVCDSCVSSKSRSNHSPKRSMMEPQPHHLLMDWNKANDLLTQEHAAFLNDPHHLMLDPPPETLIHLDEDEEYDEDMDAMKEMQYMIAVMQPVDIDPATVPKPNRRNVRISDDPQTVVARRRRERISEKIRILKRIVPGGAKMDTASMLDEAIRYTKFLKRQVRILQPHSQIGAPMANPSYLCYYHNSQP
For B3, the binding [8] was “binds”.

B4: IND-YFP expressed from pIND (3.2kb)::IND-YFP in plants (protein, UniProt O81313 1-198)
chain: MENGMYKKKGVCDSCVSSKSRSNHSPKRSMMEPQPHHLLMDWNKANDLLTQEHAAFLNDPHHLMLDPPPETLIHLDEDEEYDEDMDAMKEMQYMIAVMQPVDIDPATVPKPNRRNVRISDDPQTVVARRRRERISEKIRILKRIVPGGAKMDTASMLDEAIRYTKFLKRQVRILQPHSQIGAPMANPSYLCYYHNSQP
In the case of B4, the binding [9] is reported as “binds”.

Source: publication PMC5110995
